Three molecules from patent US20170088602A1 (Bristol-Myers Squibb, published 2017) can be followed below.

Assay [1] deals with T1, human myostatin (mature, recombinant; R&D Systems) (human) (UniProt O14793).
T1 sequence: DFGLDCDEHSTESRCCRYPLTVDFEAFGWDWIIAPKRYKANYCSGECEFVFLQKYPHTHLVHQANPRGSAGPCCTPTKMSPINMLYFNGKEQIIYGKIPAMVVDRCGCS
In words: KinExA detection reagent. Background: Kinetic exclusion samples the free partner from a solution-phase mixture.

Assay [2] addresses T1, human myostatin (mature, recombinant; R&D Systems) (human). Put plainly: SPR Format A, 100 nM myostatin.
The target in assay [3] is T2, human BMP-11 (GDF-11; R&D Systems) (human, UniProt O95390 299-407).
T2 sequence (looked up): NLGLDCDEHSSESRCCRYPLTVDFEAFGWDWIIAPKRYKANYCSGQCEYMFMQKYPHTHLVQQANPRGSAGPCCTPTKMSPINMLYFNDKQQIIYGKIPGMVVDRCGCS
Put plainly: SPR Format A, 100 nM BMP11.

The target in assay [4] is T1, human myostatin (mature, recombinant; R&D Systems) (human). In words: SPR Format B.
Assay [5] deals with T2, human BMP-11 (GDF-11; R&D Systems). Put plainly: SPR Format B.

These are yes or no findings as the source states them, for the method shown. Some binding calls cover weakened binding; strength is not graded here. For some assays here: Tags and fused reporters may be left off the sequences shown.

B1: fluorescent-labeled ActRIIB-Ig (Fc fusion, UniProt Q13705 19-134, looked up, not shown: a dimerising Fc or GST)
chain: SGRGEAETRECIYYNANWELERTNQSGLERCEGEQDKRLHCYASWRNSSGTIELVKKGCWLDDFNCYDRQECVATEENPQVYFCCCEGNFCNERFTHLPEAGGPEVTYEPPPTAPT
modifications: fluorescent label
With B1, the binding entry in assay [1] was “binds”.

B2: ActRIIB-Fc (produced in house) (Fc fusion, UniProt Q13705 19-134, looked up, not shown: a dimerising Fc or GST)
chain: B1 chain
Regarding B2, the binding result in assay [2] and in assay [3] was “binds” each time.

B3: ActRIIB-monomer (produced in house) (receptor, UniProt Q13705 19-134, looked up)
chain: B1 chain
B3: the binding entry in assay [4] and in assay [5] was “binds” in each case.
